Assay results: patent US20220340899A1, “STEREOSELECTIVE PH RESPONSIVE PEPTIDE DENDRIMERS FOR NUCLEIC ACID TRANSFECTION” (UNIVERSITÄT BERN, priority 2019, published 2022)
Some of these results come from one statement about several compounds together. Some compounds share one range, which may span the group rather than tell each member.

Assay: Titration by NaOH (apparent pKa)
Format: physicochemical
Conditions: titration with 0.1 M NaOH
Protocol: Titration by NaOH: Peptide dendrimers (0.8-1 μmol, 5-7 mg) were diluted in 7-10 mL Milli-Q water (Final concentration of 100 μM) and acidified to pH 3 with 1 M HCl. Then, 0.1 M NaOH was added by step of 2 μL to the solution with a Dosimat plus (Metrohm, Zofingen, Switzerland) and pH measured on a 692 pH/ion meter (Metrohm).

pKa2 (lysine side chains), 8.5-10:
(kl)8(kkl)4(kll)2kk(C16)k(C16) [DMH13]
(kl)8(kkl)4(kll)2kllll [DMH18]
(KL)8(KKL)4(KKL)2KLLLL [MH46]
(KL)8(KKL)4(KLL)2KK(C16)K(C16) [MH13]
